Test results: patent US8093288B2, “Genipin derivatives and uses thereof” (Beth Israel Deaconess Medical Center, priority 2003, dated 2012)

Assay: Comparative color assay for crosslinking with glycine
Settings: pH 7 buffer, equimolar glycine, 80° C., after 4 hours

COC(=O)C1=CO[C@@H](O)[C@@H]2C(CO)=CC[C@H]12 [genipin]
crosslinking activity (color of solution after treatment with glycine): turned dark blue

COC(=O)C1=CO[C@@H]2OC[C@@]3(O)[C@@H]2[C@@H]1C[C@H]3Cl [compound 55]
crosslinking activity (color of solution after treatment with glycine): still clear | crosslinking activity (color of solution after treatment with glycine) (listed as D1): no crosslinking activity
